Some of the results follow.
target: T1, OsSMF1 (Oryza sativa, UniProt Q6ZLB0 1-436); assay: protein-binding microarray (RPBM); PBS, 2% BSA, 51.3 ng/ul salmon testes DNA, 50 uM zinc acetate, 200 nM TF, 25 C, 1 h; high values mean tight binding; conditions: protein: recombinant; tags: N-terminal polyhistidine and DsRed monomer fusion (pET32a); chain copies: 2; label: CyDye5-dUTP incorporated in the synthesized complementary strand; 3' TTTTT single-stranded linker to array surface; dsDNA, one strand shown
T1 sequence: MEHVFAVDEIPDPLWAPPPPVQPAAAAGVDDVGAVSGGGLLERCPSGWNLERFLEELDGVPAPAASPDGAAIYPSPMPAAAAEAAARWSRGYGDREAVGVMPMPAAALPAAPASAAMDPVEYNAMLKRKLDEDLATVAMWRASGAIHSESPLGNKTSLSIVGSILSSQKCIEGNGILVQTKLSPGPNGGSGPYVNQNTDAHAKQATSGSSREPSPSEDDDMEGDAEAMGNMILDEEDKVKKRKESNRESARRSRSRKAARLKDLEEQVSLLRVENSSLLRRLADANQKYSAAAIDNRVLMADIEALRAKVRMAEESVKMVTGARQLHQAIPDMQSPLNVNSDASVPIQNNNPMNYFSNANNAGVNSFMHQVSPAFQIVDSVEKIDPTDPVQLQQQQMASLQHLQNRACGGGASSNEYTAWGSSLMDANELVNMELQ
Outline: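 In PBS with 2% BSA, salmon testes DNA and 50 µM zinc acetate, 200 nM protein was incubated on a custom Agilent array at 25 °C for 1 h and then washed off. The array had been made double-stranded by primer extension with Cy5-dUTP and blocked with 2% BSA. The proteins were transcription factors fused N-terminally to polyhistidine and DsRed, expressed in E. coli BL21-CodonPlus and purified on Ni–NTA. The binding signal is per-feature fluorescence intensity (arbitrary units) from an Axon 4000B scanner.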

Sequence	binding signal
AGCTGCTCTTGCTCTTCCTGCTCCGCCGTCACCTCCACCACGGAGTCACCTAGTGCAG	3350 fluorescence intensity (a.u.)
TTCGCCGGCGCCGTCGTGTCGTTCGCCGTCTGCAAGCACGCGGAGTCACCTAGTGCAG	3400 fluorescence intensity (a.u.)
ATGCAGGATGGCATCATGAGAACTGTTGGATCATTATCAGCGGAGTCACCTAGTGCAG	3370 fluorescence intensity (a.u.)
TAGACTTAGACATTTCGGCTTATAAGTTGGCTTATAAGCACGGAGTCACCTAGTGCAG	33000 fluorescence intensity (a.u.)
AGAAGAATACGGTACGATGGGCCTAATGGAAGCCCATTGACGGAGTCACCTAGTGCAG	4860 fluorescence intensity (a.u.)
AATAATTCCCTTGACTAGCTAGTGCTTGACCTGTCAAAGCCGGAGTCACCTAGTGCAG	3980 fluorescence intensity (a.u.)
TATAAACAAACCACTCGCCGCGCCGCATCAGTCGTAACCACGGAGTCACCTAGTGCAG	3840 fluorescence intensity (a.u.)
GATACGCTTAACAACATATGACGTGGCACCCACCGCTACCCGGAGTCACCTAGTGCAG	18100 fluorescence intensity (a.u.)
ACGAATTTGCAAGACAGTAGACAGGTACGTGTCAAATTGCCGGAGTCACCTAGTGCAG	7080 fluorescence intensity (a.u.)
GATGGCAATGGGGCCCCGTTCCCCGTCACCCGGTGGGGAACGGAGTCACCTAGTGCAG	3140 fluorescence intensity (a.u.)
ATAAGACCGTGTCATTGTCCAAAACGATGACGCGGTTGCACGGAGTCACCTAGTGCAG	7750 fluorescence intensity (a.u.)
GAACCCACATCCCACCATGACGCGCAATTACCTCATTATCCGGAGTCACCTAGTGCAG	3720 fluorescence intensity (a.u.)
TAACACTACTTGTTGTAAGTAATCTGTTGAGTTTCTTTCTCGGAGTCACCTAGTGCAG	3650 fluorescence intensity (a.u.)
TCGGCAAGCTGAGACGGCTAGTGAACCTATCAGCCATCAGCGGAGTCACCTAGTGCAG	15900 fluorescence intensity (a.u.)
GTGAATACTAAATATGTCAGTATATACGTCAGTCAGTCGTCGGAGTCACCTAGTGCAG	4320 fluorescence intensity (a.u.)
CCCATAAATGATGATTGACATGTGGGGCCCCACCACTCTCCGGAGTCACCTAGTGCAG	4270 fluorescence intensity (a.u.)
AGAGCAAGGCGCCGGTGGTGCTCATCAAGCCGTCGGCGACCGGAGTCACCTAGTGCAG	63100 fluorescence intensity (a.u.)
TTGGATCTAAACACAGCCTGAGTCACTGGATCTGGACTTGCGGAGTCACCTAGTGCAG	4770 fluorescence intensity (a.u.)
GGGAGCAGGGCAGCGGCGATGAGGGCGGCGGAGAGGCAGGCGGAGTCACCTAGTGCAG	20100 fluorescence intensity (a.u.)
CGTCCGGCGTCGGCGTGGACGGGTCGGCGCGGCGCCCCACCGGAGTCACCTAGTGCAG	3650 fluorescence intensity (a.u.)
ACATGGGGAAAACCAGGGACTAAAACTGTAATCAAACAGTCGGAGTCACCTAGTGCAG	29500 fluorescence intensity (a.u.)
TCCGGATAAGCTCATCAGGAGTGCATCTACTACCATCTTCCGGAGTCACCTAGTGCAG	27700 fluorescence intensity (a.u.)
TGGATTACCGGGACAAACAACAATCATCATCACCTCGGGACGGAGTCACCTAGTGCAG	3480 fluorescence intensity (a.u.)
TAACAGTTTAACACCGGCAGTGACGAGTTAGTTATCTTTTCGGAGTCACCTAGTGCAG	3470 fluorescence intensity (a.u.)
AGTGGATGATGATGTGGCATCTTGTTAGTGGATGATGATGCGGAGTCACCTAGTGCAG	14700 fluorescence intensity (a.u.)
CTTGCCTTTTCTGACTCGCTCTCTCTCTCTCTCTCTATATCGGAGTCACCTAGTGCAG	3790 fluorescence intensity (a.u.)
AAAAGAGTTGCATATTATAAAAGCTTGTTTAATGATAAATCGGAGTCACCTAGTGCAG	31400 fluorescence intensity (a.u.)

Part of the list above, in CSV form:
Sequence,binding signal
TAGACTTAGACATTTCGGCTTATAAGTTGGCTTATAAGCACGGAGTCACCTAGTGCAG,33000 fluorescence intensity (a.u.)
CCCATAAATGATGATTGACATGTGGGGCCCCACCACTCTCCGGAGTCACCTAGTGCAG,4270 fluorescence intensity (a.u.)

Next entries

Sequence	binding signal
CGCAGAGCGGCTGCAACTCAATGCCAGGTGGGCCAGGTCACGGAGTCACCTAGTGCAG	5260 fluorescence intensity (a.u.)
GAACCTGCACGACCAACTCCTCCTCCACAGCCTCTCTCTCCGGAGTCACCTAGTGCAG	3160 fluorescence intensity (a.u.)
ATACCGCGACAATGACATCTGAGTCAATGACTCGTGATAACGGAGTCACCTAGTGCAG	4510 fluorescence intensity (a.u.)
TGCTGTAGCTTAGCTCCACTGTCCCTGACGCACACACTGTCGGAGTCACCTAGTGCAG	4360 fluorescence intensity (a.u.)
TAGTGGATCGTGACCAATGAAATCTATGCATACGCATGATCGGAGTCACCTAGTGCAG	3180 fluorescence intensity (a.u.)
GACGATCGCTCGCCATCTCTCGTCGCCCAACTGGAGTAGTCGGAGTCACCTAGTGCAG	21500 fluorescence intensity (a.u.)
TGACGGCCCCACCTAGAGGTGGCCCCACACGTCATACTCTCGGAGTCACCTAGTGCAG	10600 fluorescence intensity (a.u.)
GAAGGACGGGTTCACCGTCAAGGGCCCCTTCGTGCTGGCGCGGAGTCACCTAGTGCAG	4190 fluorescence intensity (a.u.)
CTCCTTCGTCGCCTCTGCGACCGCCACGCGCCACCCATCTCGGAGTCACCTAGTGCAG	4900 fluorescence intensity (a.u.)
ACGCGACGTTCGTGTTATATTTACACCGGTCTCGCGTGTCCGGAGTCACCTAGTGCAG	3260 fluorescence intensity (a.u.)
CGCGTGCCGCTCTTGCACTAGAGATAAGACTACGTGGCACCGGAGTCACCTAGTGCAG	5580 fluorescence intensity (a.u.)
GGGCGCTTGGTGGCGGTGGGGCGTCGAGGGCGGGCGGCAGCGGAGTCACCTAGTGCAG	5000 fluorescence intensity (a.u.)
TTTGCCATTAGCGTACTCACCTAATCTAATCATCGGATTACGGAGTCACCTAGTGCAG	48900 fluorescence intensity (a.u.)
TATTGTCAGCCTATGGCCCAGGTCATACTGAAAAGTGGATCGGAGTCACCTAGTGCAG	3260 fluorescence intensity (a.u.)
CCCAAGTGCTCTGTGACGACGCCGTCGACATGCGGCAATACGGAGTCACCTAGTGCAG	3300 fluorescence intensity (a.u.)
AAGTCCATGAATCTGCAGTGCGGATTTGGCCGCATTCTGACGGAGTCACCTAGTGCAG	3320 fluorescence intensity (a.u.)
GCATGTACAGACGTGGAGACACCTCGGATTGAAGCCAGCCCGGAGTCACCTAGTGCAG	11000 fluorescence intensity (a.u.)
GAACACTCCAAGTGGCAAAATTACCTCGACACGTGTCGCGCGGAGTCACCTAGTGCAG	13400 fluorescence intensity (a.u.)
GTCGATTTTCAATCTGACGCCGCTTGTAGATGCATTGACTCGGAGTCACCTAGTGCAG	5660 fluorescence intensity (a.u.)
AGCCCAGTGCCAAGATATTTTGAGACGGACGTCACAAGCCCGGAGTCACCTAGTGCAG	3890 fluorescence intensity (a.u.)
TCTGAATCCTAATCTCAGCCACAAGGAGATGTTCATGCCACGGAGTCACCTAGTGCAG	15700 fluorescence intensity (a.u.)
GGGAGGAGGAAGAAGGGATAAGGGATGATGATACGTGGGACGGAGTCACCTAGTGCAG	3680 fluorescence intensity (a.u.)
GACCATGGCAATTGCGTGCATGACGACGGAATGGGAAGAGCGGAGTCACCTAGTGCAG	4340 fluorescence intensity (a.u.)
TATTTCAGACTTGATGGGTCATCGGCAATATCTGATCGACCGGAGTCACCTAGTGCAG	3820 fluorescence intensity (a.u.)
GAGACGTGACGTGACGTTATCTCTCTCTCTCTCTCTCTCTCGGAGTCACCTAGTGCAG	13500 fluorescence intensity (a.u.)
CTACTATACGTCGATGGGGAGGGAGGGAGGGTGGCTGTAGCGGAGTCACCTAGTGCAG	3160 fluorescence intensity (a.u.)
CCGAAGCGAGAAAGAGCTCGAGAGGGAGAGATCGATCGGCCGGAGTCACCTAGTGCAG	3180 fluorescence intensity (a.u.)

Source: paper PMC7819943, “Rice protein-binding microarrays: a tool to detect cis-acting elements near promoter regions in rice”
